Measurements: article PMC8878468, “Image-Based Annotation of Chemogenomic Libraries for Phenotypic Screening” (Molecules, 2022)

Test system: U2OS cells
Conditions: 24 h, itraconazole 10 µM, berzosertib 1 µM

Row | SMILES | assay interference seen as Hoechst High Intensity Objects
1 | CNCc1ccc(-c2cc(-c3nc(-c4ccc(S(=O)(=O)C(C)C)cc4)cnc3N)on2)cc1 [berzosertib] | fluorescence
2 | CCC(C)n1ncn(-c2ccc(N3CCN(c4ccc(OCC5COC(Cn6cncn6)(c6ccc(Cl)cc6Cl)O5)cc4)CC3)cc2)c1=O (centres unmarked) [itraconazole] | Precipitation
